Source: PubChem BioAssay AID1259405 (NCATS, 2018)

Purpose: 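Mouse-designed siRNAs used to find CHO productivity engineering targets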 (primary screen)
System: Chinese hamster CHO-K1 ovary cells with stable secreted eGFP expression
Reagent: single siRNA against mouse genes, 0.8 pmol siRNA per well (2 µl of 400 nM stock)
Time to read-out: 3 days
Measured: 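Per-well intracellular GFP measured by laser scanning cytometry, plus viability from ATP luminescence, each relative to plate median of non-targeting control wells, in %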
Reading the numbers: GFP, % of control: higher = more GFP per well, higher productivity; viability (ATP), % of control: higher = more viable cells (more ATP)
Rule for the call: 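a knock-down is called active if GFP reaches 120% or more of non-targeting control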
Here is a random part of about 50,000 deposited reagents. About 4,000 of them (8%) count as active. 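Mouse siRNA library applied to hamster cells; one well for each siRNA.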 The numbers tell different reagents against one gene apart.

no.	gene knocked down	reagent	GFP, % of control	viability (ATP), % of control	Call
1	Mmp7	1	118	140	inactive
2	Mmp7	2	71.8	74	inactive
3	Aldoc	1	39.9	62.3	inactive
4	Aldoc	2	51.2	85.3	inactive
5	Aldoc	3	45.7	69.9	inactive
6	Or6c5	1	103	97.5	inactive
7	Or6c5	2	90.5	73.6	inactive
8	Or6c5	3	100	104	inactive
9	Lpo	1	67	69.4	inactive
10	Lpo	2	109	60.1	inactive
11	Lpo	3	102	55.9	inactive
12	Mrpl2	1	52.2	54.4	inactive
13	Mrpl2	2	79.2	46	inactive
14	Mrpl2	3	105	85.3	inactive
15	Chat	1	113	104	inactive
16	Chat	2	105	135	inactive
17	Chat	3	79	83.1	inactive
18	Eml3	1	65.9	65.5	inactive
19	Eml3	2	65.9	78.6	inactive
20	Eml3	3	84.4	100	inactive
21	Rps4x	1	19	13.9	inactive
22	Rps4x	2	51.3	24.9	inactive
23	Rps4x	3	47.8	31.6	inactive
24	Tmem229a	1	90.1	81	inactive
25	Tmem229a	2	113	112	inactive
26	Tmem229a	3	108	131	inactive
27	Cry1	1	70.8	72.1	inactive
28	Cry1	2	53.5	60.8	inactive
29	Cry1	3	73.4	73.7	inactive
30	Rnaseh2c	1	90.3	74.8	inactive
31	Rnaseh2c	2	107	89.5	inactive
32	Rnaseh2c	3	145	58.1	active
33	Rtn4ip1	1	69.5	81.1	inactive
34	Rtn4ip1	2	101	80.5	inactive
35	Rtn4ip1	3	68.1	66	inactive
36	Pphln1	1	69.1	63.6	inactive
37	Pphln1	2	41.2	64.5	inactive
38	Pphln1	3	104	80.7	inactive
39	Ccpg1	1	73.7	63.7	inactive
40	Ccpg1	2	90.1	87	inactive
41	Ccpg1	3	96.7	116	inactive
42	Ldhc	1	76.2	90.2	inactive
43	Ldhc	2	111	90.7	inactive
44	Ldhc	3	80.5	113	inactive
45	Ramp1	1	68.5	76.6	inactive
46	Ramp1	2	62.8	58.5	inactive
47	Ramp1	3	43.8	53.3	inactive
48	Ndufb2	1	55.9	70.8	inactive
49	Ndufb2	2	89.2	82.7	inactive
50	Ndufb2	3	57.1	56.9	inactive
51	Dner	1	106	97.5	inactive
52	Dner	2	69.1	67.4	inactive
53	Dner	3	80	74.8	inactive
54	Nat8l	1	131	90.7	active
55	Nat8l	2	70.2	73.4	inactive
56	Nat8l	3	22.6	34.4	inactive
57	Ovca2	1	84.2	133	inactive
58	Ovca2	2	66.4	96.4	inactive
59	Ovca2	3	85.9	110	inactive
60	Rhag	1	89.7	97.4	inactive
61	Rhag	2	60.3	79.7	inactive
62	Rhag	3	86.1	94.1	inactive
63	Setx	1	58.6	53.4	inactive
64	Setx	2	138	84.9	active
65	Setx	3	100	58.5	inactive
66	Zfp711	1	80.5	84.5	inactive
67	Zfp711	2	44.6	62.8	inactive

13 entries already listed, ordered by “GFP, % of control”, lowest first:
gene knocked down	reagent	GFP, % of control	viability (ATP), % of control	Call
Pphln1	2	41.2	64.5	inactive
Cry1	2	53.5	60.8	inactive
Rtn4ip1	3	68.1	66	inactive
Pphln1	1	69.1	63.6	inactive
Rtn4ip1	1	69.5	81.1	inactive
Cry1	1	70.8	72.1	inactive
Cry1	3	73.4	73.7	inactive
Ccpg1	1	73.7	63.7	inactive
Rnaseh2c	1	90.3	74.8	inactive
Rtn4ip1	2	101	80.5	inactive
Pphln1	3	104	80.7	inactive
Rnaseh2c	2	107	89.5	inactive
Rnaseh2c	3	145	58.1	active

The listing continues:
no.	gene knocked down	reagent	GFP, % of control	viability (ATP), % of control	Call
68	Slc49a3	1	73.6	69.8	inactive
69	Slc49a3	2	54.3	118	inactive
70	Slc49a3	3	100	75.9	inactive
71	Osbpl11	1	36.8	50.8	inactive
72	Osbpl11	2	50.7	50.7	inactive
73	Osbpl11	3	96.1	107	inactive
74	Mzt2	1	103	102	inactive
75	Mzt2	2	66.4	50.6	inactive
76	Mzt2	3	123	90.6	active
77	Ptpn11	1	48.9	37.3	inactive
78	Ptpn11	2	88.4	77.6	inactive
79	Ptpn11	3	66.7	77.7	inactive
80	Dennd2a	1	53.4	57.7	inactive
81	Dennd2a	2	76	82	inactive
82	Dennd2a	3	96.3	71.1	inactive
83	Or10ag57	1	121	72.2	active
84	Or10ag57	2	68.5	63.2	inactive
85	Or10ag57	3	93.8	103	inactive
86	Arhgap17	1	62.2	61.4	inactive
87	Arhgap17	2	73.7	84.3	inactive
88	Arhgap17	3	22.7	19.6	inactive
89	Wee1	1	105	56.9	inactive
90	Wee1	2	61.3	70.3	inactive
91	Wee1	3	76.9	73.9	inactive
92	Tmed2	1	72.4	75	inactive
93	Tmed2	2	89.6	76.3	inactive
94	Tmed2	3	74.1	86	inactive
95	Actr10	1	82.4	92	inactive
96	Actr10	2	68.5	77.1	inactive
97	Hsd3b6	1	92.2	109	inactive
98	Hsd3b6	2	73.6	79.6	inactive
99	Rnf40	1	84.6	72.8	inactive
100	Rnf40	2	48	57.2	inactive
101	Rnf40	3	79.2	91.9	inactive
102	Phykpl	1	84.5	80.4	inactive
103	Phykpl	2	57.6	74.2	inactive
104	Phykpl	3	51.8	49.8	inactive
105	Ecpas	1	110	85.5	inactive
106	Ecpas	2	57.2	63	inactive
107	Ecpas	3	66.3	76.1	inactive
